Laboratory results published in patent US4772586A (Medical College of Ohio, priority 1986, dated 1988).
Strings that start with PEPTIDE1 are HELM notation: dots part the residues, brackets hold end groups and non-standard residues.

Test: general procedure: Boc solid-phase peptide synthesis; Boc-Gly-resin; p-nitrophenyl ester; DCC/HOBT for 8+1 solution coupling
Conditions: for step yield: coupling step; for isolated yield / crude mass / isolated mass: whole synthesis; for cyclisation yield: cyclisation step

## PEPTIDE1{[d(CH2)5].[Tyr(Me)].F.Q.N.C.P.R.A.[am]}$PEPTIDE1,PEPTIDE1,1:R3-6:R3$$$V2.0
  step yield: 84.2%

## beta-(S-Benzylmercapto)-beta,beta-cyclopentamethylenepropionyl-Tyr(Bzl)-Phe-Gln-Asn-Cys(Bzl)-Pro-Arg(Tos)-Gly-NH2
Based on initial Gly content on the resin, scale 0.5 mmol
  isolated yield: 62.4%
Scale 0.5 mmol
  crude mass: 723 mg
  isolated mass: 488 mg

## PEPTIDE1{[Pmp].[D-Tyr(Et)].F.V.N.C.P.R.G.[NHMe]}$PEPTIDE1,PEPTIDE1,1:R3-6:R3$$$V2.0
  cyclisation yield: 38.7%

## beta-(S-Benzylmercapto)-beta,beta-cyclopentamethylenepropionyl-Tyr(Me)-Phe- Gln-Asn-Cys(Bzl)-Pro-Arg(Tos)-Gly-NH2
  step yield: 77.3%
Based upon initial glycine content of the resin, scale 0.4 mmol
  isolated yield: 50.7%
Scale 0.4 mmol
  crude mass: 410 mg
  isolated mass: 302 mg

## PEPTIDE1{[Pmp].[Tyr(Me)].F.Q.N.C.P.R.G.[NHBu]}$PEPTIDE1,PEPTIDE1,1:R3-6:R3$$$V2.0
  cyclisation yield: 48.3%
